Laboratory results: PMC9170038
pKd: −log10 of the molar value. Protein sequences can lack the tags named with them.

What follows are sequences tested against T1, MS2 coat protein, dlFG mutant del68-81insG (Escherichia phage MS2) (UniProt P03612) (assay: binding assay). Settings: 4 mM Mg2+, FMN 200 uM; RNA-MaP array; 100 mM Tris-HCl pH 7.5, 80 mM KCl, 4 mM MgCl2, 0.1 mg/mL BSA, 1 mM DTT, 0.01 mg/mL yeast tRNA, 0.01% Tween-20; protein 1.5 nM to 3 uM; 37 C (Table S3); purified recombinant protein.
T1 sequence (looked up, limits assumed): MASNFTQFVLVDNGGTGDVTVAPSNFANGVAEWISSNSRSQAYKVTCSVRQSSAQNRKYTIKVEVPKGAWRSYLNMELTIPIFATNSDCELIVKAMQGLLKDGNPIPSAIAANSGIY
With “CACUCGUGUCUAGGAUAUGAGUGACAAGCGCGAGAUUUUCUCGCCGCUAGCUCAGAAGGAGACAUGAGGAUCACCCAUGUAAGG [Eterna 6430053 (Small Loop Exclusion NG 1)]” the pKd was under 5.52.
Work on “GCGCAUGUCACAGGAUAUCCCAUAGUGUACAUGAGGAUCACCCAUGUACUGCAAUGCAGACACAAGGAGAAGGGUGAGACUCGU [Eterna 6148835 (Same State NG 2)]” yielded a pKd of under 5.52.
In the case of “GGUUGGCGAGGAUAUACAUGAGGAUCACCCAUGUGGUCCUGAGGCUGAUCAAGCCUAUGUAGAAGGCGCAAAUC [Eterna 6023507 (Exclusion 3)]”, the pKd was under 5.52.
“GUGAACAUGAGGAUCACCCAUGUAGCUCACUGCCAGUGGCUACAGGAUAUAGCACCUCGAGGGUGCUAGAAGGGUGGCCUAGAA [Eterna 6425047 (Same State NG 3)]” showed a pKd of under 5.52.

Same assay, conditions: 4 mM Mg2+, no ligand; RNA-MaP array; 100 mM Tris-HCl pH 7.5, 80 mM KCl, 4 mM MgCl2, 0.1 mg/mL BSA, 1 mM DTT, 0.01 mg/mL yeast tRNA, 0.01% Tween-20; protein 1.5 nM to 3 uM; 37 C (Table S3); purified recombinant protein
Sequence “AAGGGACAUGAGGAUCACCCAUGUUCGAAAGACGAUGGAUCGCAGGAUAUCCAGUGUUAGAGAGAGGAGAAGGGUGAUCCUAUU [Eterna 6149052 (Same State NG 3)]” has a pKd of under 5.52.
“AUAAAACAAAACCACACAUGAGGAUCACCCAUGUCAAGAUUACAGGAUAUCCAGCAGAGAUGCAUGGAGAAGGGUGAUCCCAAA [Eterna 6149015 (Same State NG 3)]” showed a pKd of under 5.52.
For “CAUGAUCUUCGGAUCAUGUACAUGAGGAUCACCCAUGUGACGAGUUGAUCCUCAAACAAGCUUUUUGCUCGUCUUAU [Eterna 10629 (Sensor v3, turn-off variant 1)]”, the pKd was under 5.52.
For “GCCAGACAUGAGGAUCACCCAUGUAGCGAUACCAGCUCUGUUGUGAGCCCUUGGCAGCGCACUGGCAUCGCGGGUGAUCCUGCAU [Eterna 7619812 (Same State - Theophylline A)]”, the pKd was under 5.52.
“GCUCAUAUCACAGGAUAUGGCCAGCAAAUUUGGCCAGAAGGGUGAUUCAUAUUAAAAUCACAUGAGGAUCACCCAUGUACGGCA [Eterna 6148645 (Same State NG 1)]” was tested, and the pKd was under 5.52.
For “GGCUGGUAGCUAGGAUAUGGGCGGUCACAUGAGGAUCACCCAUGUCAACAUCAAAACCAGAUUAACCAGAAGGAGCUGCGGGUU [Eterna 6148739 (Same State NG 2)]”, the pKd was under 5.52.
“GGCUGUCUCGCAGGAUAUGCUGAUCAGAAACUAGCAGAAGGGUGAUCCAGUCGAGGUUUGACAUGAGGAUCACCCAUGUGGAGU [Eterna 6148594 (Same State NG 1)]” gave a pKd of under 5.52.
Sequence “UACCGCGACAACACGGUAUCACAUGAGGAUCACCCAUGUUCACAGGAUAUGCGAUAGCCAACGAAGCAGAAGGGUGAUUACUUA [Eterna 6148996 (Same State NG 3)]” has a pKd of under 5.52.
With “UUGGCGCGAUCCUUGGUCUCACAUGAGGAUCACCCAUGUAGAGAGGAUAUGCAUAGGGCCCAAUGGCAGAAGGCUCUACAUGAG [Eterna 6148357 (Exclusion NG 3)]” the pKd was under 5.52.
